In patent publication US20120291148A1, “TRANSGENIC PLANTS WITH ENHANCED CHARACTERISTICS” (Miami University, priority 2007, published 2012):
These are yes or no findings as the source states them, for the method shown. Some entries that bind do so weakly or less than the wild type.

How the values were obtained:
[1] = target: Arabidopsis thaliana ETHE1 (AtETHE1), recombinant protein expressed in E. coli from pET24b-AtETHE1 (Arabidopsis thaliana) (UniProt Q9C8L4); test: gel filtration
[2] = target: Arabidopsis thaliana ETHE1 (AtETHE1), recombinant protein expressed in E. coli from pET24b-AtETHE1 (Arabidopsis thaliana) (UniProt Q9C8L4); test: X-ray crystal structure, homodimer
[3] = target: Arabidopsis thaliana ETHE1 (AtETHE1), recombinant protein expressed in E. coli from pET24b-AtETHE1 (Arabidopsis thaliana) (UniProt Q9C8L4); test: gel filtration on Sephacryl column with protein standards

Measured: binding

B1: Arabidopsis thaliana ETHE1 (AtETHE1), recombinant protein expressed in E. coli from pET24b-AtETHE1 (enzyme)
chain: MKLLFRQLFENESSTFTYLLADVSHPDKPALLIDPVDKTVDRDLKLIDELGLKLIYAMNTHVHADHVTGTGLLKTKLPGVKSVISKASGSKADLFLEPGDKVSIGDIYLEVRATPGHTAGCVTYVTGEGADQPQPRMAFTGDAVLIRGCGRTDFQEGSSDQLYESVHSQIFTLPKDTLIYPAHDYKGFEVSTVGEEMQHNPRLTKDKETFKTIMSNLNLSYPKMIDVAVPANMVCGLQDVPSQAN
binds: all assays above
